Changes are numbered by the printed parent chain. In names and notes the source's numbering stands. These are yes or no findings as the source states them, for the method shown. Binding seen in cells or lysates may run through a third protein. Binding calls can cover weak binding; strength is not graded here. Sequences can lack the tags named with a protein. One block for each molecule: values may come before it.
Key:
[1] = molecular target: T1, Nkd1^myc (zebrafish Naked Cuticle homolog 1, C-terminal myc tag) (zebrafish) (UniProt Q2TJA6); experiment: co-IP; competition: nkd1^myc co-injected with increasing doses of dsh^HA (0pg, 125pg and 250pg) into zebrafish embryos, harvested at dome stage, immunoprecipitated with anti-myc and western blotted with anti-β-catenin
T1 sequence: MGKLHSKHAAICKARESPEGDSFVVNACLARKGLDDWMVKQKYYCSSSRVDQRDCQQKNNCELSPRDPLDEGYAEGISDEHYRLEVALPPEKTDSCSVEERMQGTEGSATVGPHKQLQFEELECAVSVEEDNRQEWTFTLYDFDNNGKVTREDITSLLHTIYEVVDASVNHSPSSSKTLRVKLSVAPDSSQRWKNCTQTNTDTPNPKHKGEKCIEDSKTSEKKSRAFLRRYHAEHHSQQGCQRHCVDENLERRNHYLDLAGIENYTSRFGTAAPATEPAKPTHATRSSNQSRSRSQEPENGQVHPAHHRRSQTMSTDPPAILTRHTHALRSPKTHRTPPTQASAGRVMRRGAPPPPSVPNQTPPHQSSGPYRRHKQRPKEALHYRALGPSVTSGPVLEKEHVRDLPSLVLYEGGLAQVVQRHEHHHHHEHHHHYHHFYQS

[2] = molecular target: Dvl2 (endogenous zebrafish Disheveled 2) (zebrafish (endogenous in zebrafish embryos)); experiment: co-IP; lysates of zebrafish embryos injected with nkd1^myc or nkd1^G2A-myc RNA, with or without wnt8 RNA, harvested at dome stage (4.3 hpf); modified Rubenfelds buffer with 0.3% NP-40; immunoprecipitation with anti-zDvl2, anti-myc or anti-β-catenin, western blot

binding [1]: binds
Molecule: Dvl2^HA

binding [2]: binds
B1: Nkd1^myc (zebrafish Naked Cuticle homolog 1, C-terminal myc tag) (protein, UniProt Q2TJA6 1-440)
chain: T1 sequence

binding [2]: binds
B2: Nkd1^G2A-myc (zebrafish Nkd1, glycine 2 to alanine, C-terminal myc tag) (protein, UniProt Q2TJA6 1-440)
chain: T1 sequence with G2A
